{"source": "PubChem BioAssay AID1259254 (NCATS, 2017)", "purpose": "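Gene knock-downs that lead to re-replication, shown by excess G2 DNA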 (primary screen)", "cells": "human HCT116 colorectal cancer cells", "reagent": "single siRNA against human genes", "duration": "3 days", "detection": "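Imaged Hoechst DNA stain sorts each cell into a cycle phase by DNA amount; per plate, G2 fraction set to 0% for non-targeting and 100% for GMNN siRNA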", "reading the numbers": "G2 robust z-score and G2 cells, % of GMNN control: higher = more G2 cells, more excess DNA replication", "rule for the call": "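Active siRNAs have a G2 robust z of 5 or more median absolute deviations over the median, which in these data means about 38% or higher of GMNN control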", "note": "This is an unselected part of about 59,000 reagents. Over the whole deposit, about 1,550 (2.6%) are marked active. 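G2 share is only a proxy for re-replication; each gene was hit by three separate siRNAs, and active genes were retested.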 The numbers tell different reagents against one gene apart. Not all columns of the deposit are shown. Not given: the amount of reagent."}
{"gene": "TNFSF13B (GeneID 10673)", "reagent no.": 1, "G2 robust z-score": -1.15, "G2 cells, % of GMNN control": -5.11, "Outcome": "inactive"}
{"gene": "TNFSF13B (GeneID 10673)", "reagent no.": 2, "G2 robust z-score": 0.191, "G2 cells, % of GMNN control": 4.31, "Outcome": "inactive"}
{"gene": "TNFSF13B (GeneID 10673)", "reagent no.": 3, "G2 robust z-score": 0.838, "G2 cells, % of GMNN control": 8.86, "Outcome": "inactive"}
{"gene": "ATP11B (GeneID 23200)", "reagent no.": 1, "G2 robust z-score": 0.363, "G2 cells, % of GMNN control": 5.52, "Outcome": "inactive"}
{"gene": "ATP11B (GeneID 23200)", "reagent no.": 2, "G2 robust z-score": -1.39, "G2 cells, % of GMNN control": -6.82, "Outcome": "inactive"}
{"gene": "ATP11B (GeneID 23200)", "reagent no.": 3, "G2 robust z-score": -1.38, "G2 cells, % of GMNN control": -6.77, "Outcome": "inactive"}
{"gene": "SPINK7 (GeneID 84651)", "reagent no.": 1, "G2 robust z-score": 1.53, "G2 cells, % of GMNN control": 13.7, "Outcome": "inactive"}
{"gene": "SPINK7 (GeneID 84651)", "reagent no.": 2, "G2 robust z-score": 1.09, "G2 cells, % of GMNN control": 10.6, "Outcome": "inactive"}
{"gene": "SPINK7 (GeneID 84651)", "reagent no.": 3, "G2 robust z-score": -0.469, "G2 cells, % of GMNN control": -0.335, "Outcome": "inactive"}

Sorted by “G2 cells, % of GMNN control” (lowest first): some entries from above.
{"gene": "SPINK7 (GeneID 84651)", "reagent no.": 2, "G2 robust z-score": 1.09, "G2 cells, % of GMNN control": 10.6, "Outcome": "inactive"}
{"gene": "SPINK7 (GeneID 84651)", "reagent no.": 1, "G2 robust z-score": 1.53, "G2 cells, % of GMNN control": 13.7, "Outcome": "inactive"}

Further results follow.
{"gene": "CCDC120 (GeneID 90060)", "reagent no.": 1, "G2 robust z-score": -0.706, "G2 cells, % of GMNN control": -2, "Outcome": "inactive"}
{"gene": "CCDC120 (GeneID 90060)", "reagent no.": 2, "G2 robust z-score": 0.71, "G2 cells, % of GMNN control": 7.96, "Outcome": "inactive"}
{"gene": "CCDC120 (GeneID 90060)", "reagent no.": 3, "G2 robust z-score": -0.344, "G2 cells, % of GMNN control": 0.545, "Outcome": "inactive"}
{"gene": "RPS4Y1 (GeneID 6192)", "reagent no.": 1, "G2 robust z-score": 1.29, "G2 cells, % of GMNN control": 12, "Outcome": "inactive"}
{"gene": "RPS4Y1 (GeneID 6192)", "reagent no.": 2, "G2 robust z-score": -0.593, "G2 cells, % of GMNN control": -1.2, "Outcome": "inactive"}
{"gene": "RPS4Y1 (GeneID 6192)", "reagent no.": 3, "G2 robust z-score": 5.82, "G2 cells, % of GMNN control": 43.9, "Outcome": "active"}
{"gene": "HMGN2P46 (GeneID 283651)", "reagent no.": 1, "G2 robust z-score": 1.6, "G2 cells, % of GMNN control": 14.2, "Outcome": "inactive"}
{"gene": "HMGN2P46 (GeneID 283651)", "reagent no.": 2, "G2 robust z-score": 2.22, "G2 cells, % of GMNN control": 18.6, "Outcome": "inactive"}
{"gene": "HMGN2P46 (GeneID 283651)", "reagent no.": 3, "G2 robust z-score": -0.0713, "G2 cells, % of GMNN control": 2.47, "Outcome": "inactive"}
{"gene": "LOC402715 (GeneID 402715)", "reagent no.": 1, "G2 robust z-score": 0.147, "G2 cells, % of GMNN control": 4, "Outcome": "inactive"}
{"gene": "LOC402715 (GeneID 402715)", "reagent no.": 2, "G2 robust z-score": -0.58, "G2 cells, % of GMNN control": -1.11, "Outcome": "inactive"}
{"gene": "LOC402715 (GeneID 402715)", "reagent no.": 3, "G2 robust z-score": -0.787, "G2 cells, % of GMNN control": -2.57, "Outcome": "inactive"}
{"gene": "SLC28A2 (GeneID 9153)", "reagent no.": 1, "G2 robust z-score": -0.509, "G2 cells, % of GMNN control": -0.614, "Outcome": "inactive"}
{"gene": "SLC28A2 (GeneID 9153)", "reagent no.": 2, "G2 robust z-score": 0.75, "G2 cells, % of GMNN control": 8.24, "Outcome": "inactive"}
{"gene": "SLC28A2 (GeneID 9153)", "reagent no.": 3, "G2 robust z-score": -1.19, "G2 cells, % of GMNN control": -5.38, "Outcome": "inactive"}
